Non-standard residues stand in square brackets, D forms with d. *: point of attachment. Gln(Trt) = N[C@@H](CCC(=O)NC(c1ccccc1)(c1ccccc1)c1ccccc1)C(=O)O; Fmoc = O=C(OCC1c2ccccc2-c2ccccc21)*; NMeF = CN[C@@H](Cc1ccccc1)C(=O)O; NMeA = CN[C@@H](C)C(=O)O; Boc = CC(C)(C)OC(=O)*; OtBu = CC(C)(C)O*

The first series is described as follows: general procedure: solution-phase peptide synthesis; 2,2-dimethylbutanoyl chloride / triethylamine (mixed anhydride); N,O-bis(trimeth). As to conditions: coupling step.
The substance Boc-[NMeF]F[NMeF][NMeA]Y-OH showed a step yield of 87%.

In turn, Fmoc-[Gln(Trt)][NMeF][NMeA]Y-OH registered a step yield of 62%.

In the case of Boc-Y[NMeF][NMeF]P-OH, the step yield worked out at 99%.

In turn, Boc-F[NMeF][NMeF]F-OH gave a step yield of 92%.

On to Fmoc-E(OtBu)[NMeF][NMeF][NMeA]Y-OH, for which the step yield was 90%.

Regarding Fmoc-W(Boc)[NMeF][NMeA]F-OH, the step yield is recorded as 86%.

Boc-[NMeF][NMeF][NMeA]Y-OH: the step yield was 85%.

For Boc-F[NMeF][NMeA]Y-OH, the step yield is on record as 93%.

The series is the same for the next values; noted with them: late stage modification step.
Consider H-F[NMeF][NMeA]Y-OH, for which the step yield was 99%.

The values above are taken from US12240871 (dated 2025).
